Data: article PMC5712102
Results are given in words; binding and its absence hold for the method and conditions named. Binding seen in cells or lysates may run through a third protein. Some results given as binding are weak or reduced against the parent protein; the word gives no strength.

Chains of the proteins cited; added tags and fusions are not shown.
UniProt P35222: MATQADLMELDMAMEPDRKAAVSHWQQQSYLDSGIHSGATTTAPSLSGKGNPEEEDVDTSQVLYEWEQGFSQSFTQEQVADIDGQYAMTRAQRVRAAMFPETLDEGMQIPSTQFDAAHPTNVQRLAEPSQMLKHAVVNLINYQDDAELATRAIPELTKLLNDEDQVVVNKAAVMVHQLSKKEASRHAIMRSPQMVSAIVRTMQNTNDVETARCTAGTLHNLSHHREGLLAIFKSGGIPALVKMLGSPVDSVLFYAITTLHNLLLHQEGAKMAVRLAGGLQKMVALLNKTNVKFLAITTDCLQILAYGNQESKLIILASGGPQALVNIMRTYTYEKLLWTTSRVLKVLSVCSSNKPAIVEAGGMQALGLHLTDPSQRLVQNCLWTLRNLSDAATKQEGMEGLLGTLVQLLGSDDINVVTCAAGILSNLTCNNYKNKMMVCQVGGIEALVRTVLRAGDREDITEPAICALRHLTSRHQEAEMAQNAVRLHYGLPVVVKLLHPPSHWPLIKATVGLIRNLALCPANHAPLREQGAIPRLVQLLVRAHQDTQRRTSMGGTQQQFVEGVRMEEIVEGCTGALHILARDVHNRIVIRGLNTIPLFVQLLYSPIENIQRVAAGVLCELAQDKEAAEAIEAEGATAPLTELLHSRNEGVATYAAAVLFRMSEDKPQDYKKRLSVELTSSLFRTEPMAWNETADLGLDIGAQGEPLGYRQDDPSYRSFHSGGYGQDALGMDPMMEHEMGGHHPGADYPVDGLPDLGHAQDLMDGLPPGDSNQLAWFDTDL
UniProt O43707: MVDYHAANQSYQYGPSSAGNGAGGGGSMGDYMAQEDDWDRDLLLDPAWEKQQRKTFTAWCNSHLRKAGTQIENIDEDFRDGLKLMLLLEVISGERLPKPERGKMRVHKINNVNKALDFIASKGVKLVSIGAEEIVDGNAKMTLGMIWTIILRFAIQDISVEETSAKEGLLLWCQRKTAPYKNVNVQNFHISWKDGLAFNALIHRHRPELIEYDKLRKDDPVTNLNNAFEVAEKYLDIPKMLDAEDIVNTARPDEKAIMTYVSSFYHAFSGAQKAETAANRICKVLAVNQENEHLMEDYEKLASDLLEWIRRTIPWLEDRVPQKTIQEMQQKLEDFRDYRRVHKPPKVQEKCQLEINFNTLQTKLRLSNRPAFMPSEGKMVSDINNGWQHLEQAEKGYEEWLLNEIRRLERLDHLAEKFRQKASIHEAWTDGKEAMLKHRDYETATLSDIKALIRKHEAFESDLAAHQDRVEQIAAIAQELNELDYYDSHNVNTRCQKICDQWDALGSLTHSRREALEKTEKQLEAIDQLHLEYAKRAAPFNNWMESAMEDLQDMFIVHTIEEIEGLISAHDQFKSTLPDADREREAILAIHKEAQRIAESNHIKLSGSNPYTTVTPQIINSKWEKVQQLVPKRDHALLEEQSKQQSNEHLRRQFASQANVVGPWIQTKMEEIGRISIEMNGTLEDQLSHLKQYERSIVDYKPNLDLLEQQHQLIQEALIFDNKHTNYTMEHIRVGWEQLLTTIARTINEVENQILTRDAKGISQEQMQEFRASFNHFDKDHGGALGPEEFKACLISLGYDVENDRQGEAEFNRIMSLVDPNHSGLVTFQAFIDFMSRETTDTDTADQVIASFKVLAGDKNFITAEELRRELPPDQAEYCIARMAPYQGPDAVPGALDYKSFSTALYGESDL

Target: β-catenin (human (endogenous in breast CSCs sorted from MDA-MB-231)) (UniProt P35222)
Assay: co-IP; Dynabeads Protein G immunoprecipitation kit; the precipitating antibody and the cells are not stated

binding: binds
Substance: ACTN4 (from UniProt O43707 1-911)
